Some of the results follow.

By UniProt entry, the sequences of proteins in these tests, tags left out. Where a name states a change or a piece, a line headed by the entry shows the natural chain unless it says otherwise.
UniProt Q6PL24: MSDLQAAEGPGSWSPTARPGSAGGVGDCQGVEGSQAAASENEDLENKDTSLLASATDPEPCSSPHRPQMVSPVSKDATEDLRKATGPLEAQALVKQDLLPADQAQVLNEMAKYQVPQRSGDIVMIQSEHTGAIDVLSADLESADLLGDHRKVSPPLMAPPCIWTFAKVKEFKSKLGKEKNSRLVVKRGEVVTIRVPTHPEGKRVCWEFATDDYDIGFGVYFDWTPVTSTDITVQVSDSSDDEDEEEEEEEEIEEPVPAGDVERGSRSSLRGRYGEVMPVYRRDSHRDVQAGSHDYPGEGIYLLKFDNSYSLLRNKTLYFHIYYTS
UniProt Q9UKI8: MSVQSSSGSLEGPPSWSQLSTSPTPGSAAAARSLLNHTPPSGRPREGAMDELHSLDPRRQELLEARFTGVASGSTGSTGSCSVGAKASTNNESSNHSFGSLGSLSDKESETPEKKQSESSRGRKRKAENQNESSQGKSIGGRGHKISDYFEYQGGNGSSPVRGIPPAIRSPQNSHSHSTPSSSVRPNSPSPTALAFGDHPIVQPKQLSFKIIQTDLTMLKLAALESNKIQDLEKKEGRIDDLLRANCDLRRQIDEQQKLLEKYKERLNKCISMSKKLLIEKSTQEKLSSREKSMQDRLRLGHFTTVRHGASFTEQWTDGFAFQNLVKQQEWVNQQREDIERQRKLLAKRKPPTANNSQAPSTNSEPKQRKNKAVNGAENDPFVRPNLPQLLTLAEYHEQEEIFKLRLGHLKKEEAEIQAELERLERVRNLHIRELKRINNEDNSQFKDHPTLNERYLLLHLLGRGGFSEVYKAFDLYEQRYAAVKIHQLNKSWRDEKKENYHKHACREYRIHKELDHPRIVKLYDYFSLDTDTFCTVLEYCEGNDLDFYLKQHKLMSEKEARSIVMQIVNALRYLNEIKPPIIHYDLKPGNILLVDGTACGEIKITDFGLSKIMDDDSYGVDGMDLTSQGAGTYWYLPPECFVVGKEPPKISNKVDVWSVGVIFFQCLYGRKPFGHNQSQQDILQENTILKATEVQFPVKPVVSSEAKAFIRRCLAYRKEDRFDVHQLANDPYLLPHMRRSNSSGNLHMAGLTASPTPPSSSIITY
UniProt Q9P2C4: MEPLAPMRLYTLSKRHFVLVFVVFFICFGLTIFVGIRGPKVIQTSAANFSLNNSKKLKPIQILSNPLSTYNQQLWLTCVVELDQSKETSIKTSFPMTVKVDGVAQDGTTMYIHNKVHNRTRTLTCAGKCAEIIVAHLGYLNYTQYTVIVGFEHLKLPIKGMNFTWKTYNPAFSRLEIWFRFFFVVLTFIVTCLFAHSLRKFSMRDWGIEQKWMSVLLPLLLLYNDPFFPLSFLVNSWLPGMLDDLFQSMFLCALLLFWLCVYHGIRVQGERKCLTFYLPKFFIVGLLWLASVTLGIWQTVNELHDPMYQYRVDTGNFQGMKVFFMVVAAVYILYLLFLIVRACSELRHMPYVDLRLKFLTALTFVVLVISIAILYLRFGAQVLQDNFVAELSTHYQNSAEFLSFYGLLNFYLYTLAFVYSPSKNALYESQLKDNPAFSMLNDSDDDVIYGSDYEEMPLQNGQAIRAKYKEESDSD
UniProt Q9BXJ8: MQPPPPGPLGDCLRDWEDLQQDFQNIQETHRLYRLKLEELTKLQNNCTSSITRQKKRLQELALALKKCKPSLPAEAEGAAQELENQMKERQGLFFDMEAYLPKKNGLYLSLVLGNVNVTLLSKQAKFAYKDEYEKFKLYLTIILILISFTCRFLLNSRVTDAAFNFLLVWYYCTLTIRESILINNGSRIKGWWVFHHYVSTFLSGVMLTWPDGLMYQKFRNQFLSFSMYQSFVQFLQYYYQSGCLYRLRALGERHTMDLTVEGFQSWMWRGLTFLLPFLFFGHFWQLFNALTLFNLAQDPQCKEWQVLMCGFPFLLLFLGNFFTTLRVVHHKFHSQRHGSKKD
UniProt Q86XR7, whole entry, looked up: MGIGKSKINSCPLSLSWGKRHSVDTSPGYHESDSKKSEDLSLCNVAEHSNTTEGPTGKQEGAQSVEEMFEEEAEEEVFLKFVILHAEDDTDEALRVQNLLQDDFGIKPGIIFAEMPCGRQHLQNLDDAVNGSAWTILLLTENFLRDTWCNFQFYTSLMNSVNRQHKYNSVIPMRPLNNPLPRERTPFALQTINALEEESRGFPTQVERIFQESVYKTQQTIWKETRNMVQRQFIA
UniProt Q9NQ88: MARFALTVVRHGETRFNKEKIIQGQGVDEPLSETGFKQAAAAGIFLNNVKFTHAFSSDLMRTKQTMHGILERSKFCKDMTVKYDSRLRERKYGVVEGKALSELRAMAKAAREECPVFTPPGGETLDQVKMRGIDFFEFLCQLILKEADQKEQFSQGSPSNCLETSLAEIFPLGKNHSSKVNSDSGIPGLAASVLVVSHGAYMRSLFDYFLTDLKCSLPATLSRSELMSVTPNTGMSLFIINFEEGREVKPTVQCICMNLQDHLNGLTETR
UniProt Q07157: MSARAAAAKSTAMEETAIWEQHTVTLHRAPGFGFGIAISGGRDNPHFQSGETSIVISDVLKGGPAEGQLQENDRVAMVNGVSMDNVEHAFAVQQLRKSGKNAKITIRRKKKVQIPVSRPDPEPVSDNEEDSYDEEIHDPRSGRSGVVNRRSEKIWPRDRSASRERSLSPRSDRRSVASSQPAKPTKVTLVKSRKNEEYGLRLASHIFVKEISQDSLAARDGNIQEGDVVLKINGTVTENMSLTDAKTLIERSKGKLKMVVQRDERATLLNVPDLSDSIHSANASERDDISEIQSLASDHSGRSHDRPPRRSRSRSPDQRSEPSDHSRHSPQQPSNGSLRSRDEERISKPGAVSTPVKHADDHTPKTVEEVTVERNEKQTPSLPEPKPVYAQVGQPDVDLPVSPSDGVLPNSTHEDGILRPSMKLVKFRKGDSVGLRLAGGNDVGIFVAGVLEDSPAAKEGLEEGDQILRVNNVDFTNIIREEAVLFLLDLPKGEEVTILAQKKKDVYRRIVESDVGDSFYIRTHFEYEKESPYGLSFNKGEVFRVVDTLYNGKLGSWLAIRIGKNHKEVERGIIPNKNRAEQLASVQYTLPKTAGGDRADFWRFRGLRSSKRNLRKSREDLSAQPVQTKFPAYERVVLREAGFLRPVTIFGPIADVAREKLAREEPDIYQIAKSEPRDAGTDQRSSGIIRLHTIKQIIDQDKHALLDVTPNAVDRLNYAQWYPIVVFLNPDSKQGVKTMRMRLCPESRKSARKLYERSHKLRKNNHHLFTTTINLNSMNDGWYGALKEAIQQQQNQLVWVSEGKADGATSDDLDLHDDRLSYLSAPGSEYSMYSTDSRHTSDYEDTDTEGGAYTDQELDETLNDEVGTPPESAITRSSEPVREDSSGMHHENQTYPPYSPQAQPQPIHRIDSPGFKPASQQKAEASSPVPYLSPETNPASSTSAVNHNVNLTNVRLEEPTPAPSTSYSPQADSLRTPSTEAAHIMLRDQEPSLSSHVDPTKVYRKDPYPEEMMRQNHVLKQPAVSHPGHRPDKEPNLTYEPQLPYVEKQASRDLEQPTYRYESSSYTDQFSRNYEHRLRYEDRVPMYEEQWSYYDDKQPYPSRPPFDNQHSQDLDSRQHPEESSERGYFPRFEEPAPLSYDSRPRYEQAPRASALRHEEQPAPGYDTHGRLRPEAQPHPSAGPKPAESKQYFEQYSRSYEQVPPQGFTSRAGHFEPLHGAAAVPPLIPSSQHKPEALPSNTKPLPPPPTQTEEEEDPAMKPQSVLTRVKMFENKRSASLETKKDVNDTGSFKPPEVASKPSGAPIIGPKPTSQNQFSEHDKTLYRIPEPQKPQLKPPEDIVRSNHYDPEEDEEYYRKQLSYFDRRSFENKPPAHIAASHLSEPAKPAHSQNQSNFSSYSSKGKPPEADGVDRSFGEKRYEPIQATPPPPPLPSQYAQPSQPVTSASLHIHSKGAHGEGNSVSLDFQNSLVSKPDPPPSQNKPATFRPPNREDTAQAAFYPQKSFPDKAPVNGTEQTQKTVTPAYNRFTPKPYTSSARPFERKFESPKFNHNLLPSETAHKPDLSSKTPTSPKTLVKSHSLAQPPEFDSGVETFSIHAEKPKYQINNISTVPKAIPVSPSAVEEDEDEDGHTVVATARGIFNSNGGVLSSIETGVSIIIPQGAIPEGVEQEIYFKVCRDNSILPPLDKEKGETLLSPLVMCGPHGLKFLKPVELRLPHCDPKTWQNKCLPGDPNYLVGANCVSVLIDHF
UniProt Q04727: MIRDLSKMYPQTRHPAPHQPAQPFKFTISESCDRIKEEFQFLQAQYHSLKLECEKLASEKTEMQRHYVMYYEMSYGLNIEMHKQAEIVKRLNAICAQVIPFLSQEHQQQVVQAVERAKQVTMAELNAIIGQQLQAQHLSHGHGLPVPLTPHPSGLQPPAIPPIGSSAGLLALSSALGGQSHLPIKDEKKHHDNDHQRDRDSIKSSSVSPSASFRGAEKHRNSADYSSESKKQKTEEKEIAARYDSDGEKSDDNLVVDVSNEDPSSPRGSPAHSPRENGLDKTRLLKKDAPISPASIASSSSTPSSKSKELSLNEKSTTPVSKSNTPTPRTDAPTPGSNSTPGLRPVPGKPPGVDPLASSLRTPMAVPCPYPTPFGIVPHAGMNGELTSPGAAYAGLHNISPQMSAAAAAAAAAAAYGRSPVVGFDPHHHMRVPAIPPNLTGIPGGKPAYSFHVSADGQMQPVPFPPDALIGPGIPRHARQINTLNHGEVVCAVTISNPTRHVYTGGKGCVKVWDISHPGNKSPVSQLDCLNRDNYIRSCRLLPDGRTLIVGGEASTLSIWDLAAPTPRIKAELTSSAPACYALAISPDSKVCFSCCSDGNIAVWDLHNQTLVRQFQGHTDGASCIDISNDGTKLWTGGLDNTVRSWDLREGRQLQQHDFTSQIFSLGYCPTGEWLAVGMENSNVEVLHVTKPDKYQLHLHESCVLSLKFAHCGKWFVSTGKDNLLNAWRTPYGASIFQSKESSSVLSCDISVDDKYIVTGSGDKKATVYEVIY
UniProt Q13445: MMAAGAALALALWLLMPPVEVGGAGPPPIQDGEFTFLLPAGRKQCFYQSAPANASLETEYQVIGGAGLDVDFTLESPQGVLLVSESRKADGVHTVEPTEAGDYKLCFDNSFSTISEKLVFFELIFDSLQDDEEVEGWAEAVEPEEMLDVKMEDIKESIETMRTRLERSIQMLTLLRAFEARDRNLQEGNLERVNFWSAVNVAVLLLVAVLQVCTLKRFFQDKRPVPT
UniProt Q3ZCQ8: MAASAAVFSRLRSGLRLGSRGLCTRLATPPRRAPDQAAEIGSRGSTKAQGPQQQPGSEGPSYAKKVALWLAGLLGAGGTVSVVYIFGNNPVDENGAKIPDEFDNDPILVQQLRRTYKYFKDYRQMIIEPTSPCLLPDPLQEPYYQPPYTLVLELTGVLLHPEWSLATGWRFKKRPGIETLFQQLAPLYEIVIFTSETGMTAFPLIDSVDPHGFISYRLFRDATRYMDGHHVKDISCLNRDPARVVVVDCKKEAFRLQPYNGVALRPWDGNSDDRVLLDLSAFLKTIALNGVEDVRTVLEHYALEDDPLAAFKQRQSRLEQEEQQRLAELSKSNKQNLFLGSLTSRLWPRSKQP
UniProt O15321, whole entry, looked up: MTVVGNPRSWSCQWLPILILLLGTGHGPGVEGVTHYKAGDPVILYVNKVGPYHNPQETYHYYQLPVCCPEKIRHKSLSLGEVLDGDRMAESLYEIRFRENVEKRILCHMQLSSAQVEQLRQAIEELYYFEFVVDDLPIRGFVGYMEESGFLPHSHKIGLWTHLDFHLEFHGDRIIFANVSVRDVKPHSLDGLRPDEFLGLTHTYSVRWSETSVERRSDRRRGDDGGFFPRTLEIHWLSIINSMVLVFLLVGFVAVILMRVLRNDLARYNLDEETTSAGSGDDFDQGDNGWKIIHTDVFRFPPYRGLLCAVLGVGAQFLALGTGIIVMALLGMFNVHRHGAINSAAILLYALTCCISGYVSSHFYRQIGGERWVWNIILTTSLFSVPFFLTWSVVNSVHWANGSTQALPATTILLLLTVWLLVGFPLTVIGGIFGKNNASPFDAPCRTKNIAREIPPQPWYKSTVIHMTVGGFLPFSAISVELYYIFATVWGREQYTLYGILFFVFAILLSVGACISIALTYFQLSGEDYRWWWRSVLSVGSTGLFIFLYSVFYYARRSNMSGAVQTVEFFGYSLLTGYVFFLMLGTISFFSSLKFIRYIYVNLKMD
UniProt P17152: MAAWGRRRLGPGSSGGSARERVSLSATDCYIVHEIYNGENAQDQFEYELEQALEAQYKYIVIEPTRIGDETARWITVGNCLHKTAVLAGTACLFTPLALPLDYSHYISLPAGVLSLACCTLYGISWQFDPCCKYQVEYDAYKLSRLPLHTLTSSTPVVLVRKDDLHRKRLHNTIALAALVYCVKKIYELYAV
UniProt Q15363: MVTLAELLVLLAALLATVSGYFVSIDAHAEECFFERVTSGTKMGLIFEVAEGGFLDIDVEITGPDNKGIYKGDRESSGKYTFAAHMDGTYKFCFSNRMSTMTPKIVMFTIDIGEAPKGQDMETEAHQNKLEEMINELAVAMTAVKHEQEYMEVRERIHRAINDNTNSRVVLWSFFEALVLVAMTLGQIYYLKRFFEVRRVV

Compound in this assay: O=C1NC(=O)C(c2cnc3ccccn23)=C1c1cn2c3c(cc(F)cc13)CN(C(=O)N1CCCCC1)CC2
Kind of assay: log2 fold change, soluble protein after heating vs DMSO (PISA); higher = thermal stabilisation; K562 lysate, 10 uM; active = over 0.2 and 3.5 SD of the protein, either way, in both replicates (recomputed). In short, it runs like this:
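Soluble protein was defined as the supernatant remaining after 21,000xg for 90 min, following pooling of heated aliquots and adjustment to 0.5% NP-40 at 4°C. Before that, crude K562 extract at 1 mg/mL protein in PBS pH 7.4 with 1 mM MgCl2 was treated with 10 μM compound for 30 min and heated for 3 min across 48°C-58°C. Quantification used TMTpro 16plex LC-MS/MS with channel sums equalised, and values are log-two fold changes in thermal stability relative to solvent controls from duplicates.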
As to TMED8 (UniProt Q6PL24), the log2 fold change was inactive: 0.023.

In the case of TLK1 isoform 2 (UniProt Q9UKI8), the log2 fold change was inactive: 0.156.

Take TM9SF3 (UniProt Q9HD45): the log2 fold change was inactive: 0.012.

Take TM9SF2 (UniProt Q99805): the log2 fold change is inactive: -0.029.

As to TMEM181 (UniProt Q9P2C4), the log2 fold change is inactive: -0.079.

Regarding TLCD4 (UniProt Q96MV1), the log2 fold change was inactive: 0.005.

With TMEM115 (UniProt Q12893), the log2 fold change was inactive: -0.011.

Regarding TIMM9 (UniProt Q9Y5J7), the log2 fold change is inactive: 0.038.

With TMEM120A (UniProt Q9BXJ8), the log2 fold change is inactive: -0.051.

Regarding TICAM2 isoform 2 (UniProt Q86XR7), the log2 fold change was inactive: -0.047.

For the target TIGAR (UniProt Q9NQ88), the log2 fold change is inactive: -0.114.

For the target TM9SF4 (UniProt Q92544), the log2 fold change was inactive: -0.037.

As for TMEM173 (UniProt Q86WV6), the log2 fold change is inactive: 0.032.

Turning to TJP1 isoform 2 (UniProt Q07157), the log2 fold change was inactive: -0.023.

For the target TMCO6 isoform 2 (UniProt Q96DC7), the log2 fold change is inactive: -0.047.

As for TLK2 isoform 2 (UniProt Q86UE8), the log2 fold change was inactive: 0.118.

Take TLE4 isoform 3 (UniProt Q04727): the log2 fold change was inactive: -0.089.

In the case of TMEM106B (UniProt Q9NUM4), the log2 fold change was inactive: -0.043.

As for TMED1 (UniProt Q13445), the log2 fold change was inactive: 0.074.

THEMIS2 (UniProt Q5TEJ8): the log2 fold change was inactive: 0.059.

With TMEM165 (UniProt Q9HC07), the log2 fold change is inactive: -0.034.

For the target TMCO1 (UniProt Q9UM00), the log2 fold change was inactive: -0.014.

On to THOC5 (UniProt Q13769), for which the log2 fold change is inactive: 0.008.

For TMEM168 (UniProt Q9H0V1), the log2 fold change was inactive: -0.035.

Regarding TMEM120B (UniProt A0PK00), the log2 fold change was inactive: 0.078.

Turning to TIMM50 isoform 2 (UniProt Q3ZCQ8), the log2 fold change is inactive: -0.013.

Turning to TMBIM6 isoform 2 (UniProt P55061), the log2 fold change is inactive: -0.001.

For TLE3 isoform 4 (UniProt Q04726), the log2 fold change is inactive: -0.018.

For TIMM23 (UniProt O14925), the log2 fold change is inactive: -0.012.

Consider TM9SF1 (UniProt O15321), for which the log2 fold change was inactive: -0.053.

Turning to TMEM161B (UniProt Q8NDZ6), the log2 fold change is inactive: 0.019.

Consider THOC6 (UniProt Q86W42), for which the log2 fold change is inactive: 0.03.

Turning to TMEM11 (UniProt P17152), the log2 fold change is inactive: 0.077.

As to THOC3 (UniProt Q96J01), the log2 fold change was inactive: -0.017.

TMED2 (UniProt Q15363): the log2 fold change was inactive: -0.043.

As to TMED5 (UniProt Q9Y3A6), the log2 fold change was inactive: 0.016.

For the target TMEM179B (UniProt Q7Z7N9), the log2 fold change was inactive: 0.28.

As to THAP12 (UniProt O43422), the log2 fold change was inactive: -0.017.

Values taken from the supplement of paper PMC10849652.
